Laboratory results as given in article doi:10.1101/518597.
These are yes or no findings as the source states them, for the method shown. In cells and extracts the contact can be indirect. Some binding calls cover weakened binding; strength is not graded here.

Biological target: T1, endogenous SYNPO (synaptopodin) of mature rat cortical neurons (rat (endogenous in primary cortical neurons)) (UniProt Q9Z327)
T1 sequence: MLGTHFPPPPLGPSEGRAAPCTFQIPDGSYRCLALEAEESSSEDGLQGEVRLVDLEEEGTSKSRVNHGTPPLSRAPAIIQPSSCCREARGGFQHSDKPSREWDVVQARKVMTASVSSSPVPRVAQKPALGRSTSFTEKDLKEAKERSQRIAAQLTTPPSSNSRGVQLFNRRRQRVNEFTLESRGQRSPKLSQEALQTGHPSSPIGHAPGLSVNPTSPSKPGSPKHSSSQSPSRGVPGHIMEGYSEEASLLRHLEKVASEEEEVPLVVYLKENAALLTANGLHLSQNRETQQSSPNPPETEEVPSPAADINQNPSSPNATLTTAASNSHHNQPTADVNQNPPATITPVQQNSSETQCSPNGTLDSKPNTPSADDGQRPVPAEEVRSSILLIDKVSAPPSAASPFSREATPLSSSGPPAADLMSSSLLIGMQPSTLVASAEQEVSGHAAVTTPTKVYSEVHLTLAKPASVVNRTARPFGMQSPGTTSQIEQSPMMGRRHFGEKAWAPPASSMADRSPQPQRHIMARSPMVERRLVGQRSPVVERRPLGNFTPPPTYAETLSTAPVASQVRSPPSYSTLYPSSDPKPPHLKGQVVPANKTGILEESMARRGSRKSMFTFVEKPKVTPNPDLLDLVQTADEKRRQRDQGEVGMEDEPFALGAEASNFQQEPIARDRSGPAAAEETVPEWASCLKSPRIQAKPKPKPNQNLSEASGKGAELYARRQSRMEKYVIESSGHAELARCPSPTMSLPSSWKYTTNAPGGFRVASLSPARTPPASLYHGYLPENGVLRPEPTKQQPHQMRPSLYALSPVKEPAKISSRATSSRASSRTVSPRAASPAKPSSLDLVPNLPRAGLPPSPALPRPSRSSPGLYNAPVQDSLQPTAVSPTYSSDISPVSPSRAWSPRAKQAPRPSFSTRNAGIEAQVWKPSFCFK
Assay: co-IP

## endogenous SQSTM1/p62 (sequestosome 1) of mature rat cortical neurons (from UniProt O08623 1-439)
  binding: binds
